Literature values, collected in US9790506B2, “Diagnostic and screening methods for atopic dermatitis” (The Regents of the University of California, priority 2013, dated 2017).
Some entries share one result that the patent states for a list of compounds. Ends that are not written are not given here.

Test system: DRG neurons
Details: literature (Ikoma 2006; Imamachi 2009; Liu 2009; Wilson 2011); cited from earlier work

## VGRPEWWMDYQKRYG [BAM8-22, MrgprX1-specific ligand, endogenous pruritogen]
  sensory neurons activated by itch compounds: 5-20%
